Laboratory results published in paper PMC4123072.
Results are given in words; binding and its absence hold for the method and conditions named. Binding seen in cells or lysates may run through a third protein. Some binding calls cover weakened binding; strength is not graded here.

The chains behind the UniProt entries cited, without tags or fusion partners.
UniProt Q07812: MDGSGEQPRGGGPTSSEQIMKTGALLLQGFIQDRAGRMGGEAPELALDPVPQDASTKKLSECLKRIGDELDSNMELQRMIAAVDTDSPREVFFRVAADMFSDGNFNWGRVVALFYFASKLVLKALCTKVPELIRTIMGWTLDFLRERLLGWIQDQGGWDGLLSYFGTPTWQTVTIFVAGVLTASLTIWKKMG

Key:
[1] = target: WT human parkin stably expressed in CHO cells (human) (UniProt O60260); experiment: co-IP; CHO-Parkin cells transfected with GFP-Bax variant; lysates precipitated with monoclonal parkin antibody PRK8 and Protein-G agarose overnight at 4 °C; blots probed with GFP antibody
[2] = target: myc-tagged mutant parkin R275W (human) (UniProt O60260); experiment: co-IP; HEK cells co-transfected with myc-parkin variant and Flag-Bax variant; lysates incubated with myc-conjugated agarose beads overnight at 4 °C; washed 3 x 15 min in STEN buffer (50 mM Tris pH 7.6, 150 mM NaCl, 2 mM EDTA, 0.2% NP-40); blots probed with Flag M2 antibody
[3] = target: myc-tagged wild-type parkin (human) (UniProt O60260); experiment: as above

| binding [1] | binding [2] | binding [3] | Substance |
| --- | --- | --- | --- |
| binds | – | – | GFP-tagged wild-type Bax (from UniProt Q07812 1-192) |
| – | binds | binds | Flag-tagged wild-type human Bax (from UniProt Q07812 1-192) |
